Measurements reported in the supplement of paper PMC12823440, “Inhibitors supercharge kinase turnover through native proteolytic circuits” (Nature, 2025).
Counter-ions that a name gives are not always drawn. This is one part of the list. The calls rarely recur for the same compound in another form.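 Kinases were expressed as nanoluciferase fusions in K562 cells and luminescence was read every 4 h between 2 and 18 h as percent of control, DMSO set to 100% and a positive control to 0%. A time point counts as decreased when the signal drops significantly (2 sigma). The hit call is the authors' own, does not follow from the count of time points alone, and its rule is not shown.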

By UniProt entry, the sequences of proteins in these tests, tags left out. Where a name states a change or a piece, a line headed by the entry shows the natural chain unless it says otherwise.
UniProt P28482, whole entry: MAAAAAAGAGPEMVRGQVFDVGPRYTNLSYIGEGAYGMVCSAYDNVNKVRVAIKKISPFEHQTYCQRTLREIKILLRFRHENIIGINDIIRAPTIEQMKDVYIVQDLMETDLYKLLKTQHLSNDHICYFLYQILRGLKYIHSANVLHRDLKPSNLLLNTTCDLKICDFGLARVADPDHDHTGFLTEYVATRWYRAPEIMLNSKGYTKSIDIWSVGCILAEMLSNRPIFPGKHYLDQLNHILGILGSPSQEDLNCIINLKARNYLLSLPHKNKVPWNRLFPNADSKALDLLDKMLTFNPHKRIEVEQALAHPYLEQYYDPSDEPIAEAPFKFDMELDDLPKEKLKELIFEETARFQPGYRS
UniProt P31152, whole entry: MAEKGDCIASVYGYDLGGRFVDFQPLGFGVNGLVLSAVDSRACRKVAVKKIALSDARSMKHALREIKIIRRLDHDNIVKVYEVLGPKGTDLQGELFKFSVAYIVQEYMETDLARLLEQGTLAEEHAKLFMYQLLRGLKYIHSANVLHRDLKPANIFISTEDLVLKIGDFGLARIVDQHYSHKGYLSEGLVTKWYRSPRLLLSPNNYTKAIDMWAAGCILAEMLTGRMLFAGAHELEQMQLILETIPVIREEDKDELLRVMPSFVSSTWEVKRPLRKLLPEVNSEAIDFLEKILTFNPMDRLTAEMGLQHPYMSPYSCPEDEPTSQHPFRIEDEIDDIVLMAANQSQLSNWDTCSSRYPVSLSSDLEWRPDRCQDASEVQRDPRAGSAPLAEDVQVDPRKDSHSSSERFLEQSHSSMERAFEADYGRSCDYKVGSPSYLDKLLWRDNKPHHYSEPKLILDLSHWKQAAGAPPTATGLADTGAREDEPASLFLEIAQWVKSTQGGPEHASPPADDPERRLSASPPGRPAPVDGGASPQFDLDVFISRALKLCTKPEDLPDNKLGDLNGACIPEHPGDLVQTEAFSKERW
UniProt P49137, whole entry, looked up: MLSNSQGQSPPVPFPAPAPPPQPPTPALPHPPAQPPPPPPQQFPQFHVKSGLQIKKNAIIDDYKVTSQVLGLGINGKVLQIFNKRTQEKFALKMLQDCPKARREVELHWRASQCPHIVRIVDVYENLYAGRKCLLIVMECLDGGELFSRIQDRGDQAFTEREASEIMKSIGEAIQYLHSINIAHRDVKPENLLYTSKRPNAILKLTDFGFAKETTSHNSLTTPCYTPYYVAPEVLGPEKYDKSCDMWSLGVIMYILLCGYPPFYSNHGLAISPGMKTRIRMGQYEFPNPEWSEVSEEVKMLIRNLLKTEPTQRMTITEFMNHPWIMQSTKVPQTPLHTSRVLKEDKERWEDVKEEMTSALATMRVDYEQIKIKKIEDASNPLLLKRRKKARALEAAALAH
UniProt Q9BUB5: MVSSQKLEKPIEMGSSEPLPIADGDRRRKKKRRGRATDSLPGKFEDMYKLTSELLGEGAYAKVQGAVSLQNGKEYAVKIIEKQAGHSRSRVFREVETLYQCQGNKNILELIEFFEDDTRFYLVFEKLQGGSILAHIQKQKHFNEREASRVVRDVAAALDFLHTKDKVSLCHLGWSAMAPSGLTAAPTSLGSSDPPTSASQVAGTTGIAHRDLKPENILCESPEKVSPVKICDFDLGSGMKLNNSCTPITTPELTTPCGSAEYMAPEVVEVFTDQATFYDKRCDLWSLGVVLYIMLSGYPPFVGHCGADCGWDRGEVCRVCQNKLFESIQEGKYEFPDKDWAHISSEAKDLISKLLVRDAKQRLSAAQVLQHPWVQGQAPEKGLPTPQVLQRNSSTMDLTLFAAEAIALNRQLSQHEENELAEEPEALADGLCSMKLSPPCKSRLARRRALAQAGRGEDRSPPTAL
UniProt Q16620, whole entry, looked up: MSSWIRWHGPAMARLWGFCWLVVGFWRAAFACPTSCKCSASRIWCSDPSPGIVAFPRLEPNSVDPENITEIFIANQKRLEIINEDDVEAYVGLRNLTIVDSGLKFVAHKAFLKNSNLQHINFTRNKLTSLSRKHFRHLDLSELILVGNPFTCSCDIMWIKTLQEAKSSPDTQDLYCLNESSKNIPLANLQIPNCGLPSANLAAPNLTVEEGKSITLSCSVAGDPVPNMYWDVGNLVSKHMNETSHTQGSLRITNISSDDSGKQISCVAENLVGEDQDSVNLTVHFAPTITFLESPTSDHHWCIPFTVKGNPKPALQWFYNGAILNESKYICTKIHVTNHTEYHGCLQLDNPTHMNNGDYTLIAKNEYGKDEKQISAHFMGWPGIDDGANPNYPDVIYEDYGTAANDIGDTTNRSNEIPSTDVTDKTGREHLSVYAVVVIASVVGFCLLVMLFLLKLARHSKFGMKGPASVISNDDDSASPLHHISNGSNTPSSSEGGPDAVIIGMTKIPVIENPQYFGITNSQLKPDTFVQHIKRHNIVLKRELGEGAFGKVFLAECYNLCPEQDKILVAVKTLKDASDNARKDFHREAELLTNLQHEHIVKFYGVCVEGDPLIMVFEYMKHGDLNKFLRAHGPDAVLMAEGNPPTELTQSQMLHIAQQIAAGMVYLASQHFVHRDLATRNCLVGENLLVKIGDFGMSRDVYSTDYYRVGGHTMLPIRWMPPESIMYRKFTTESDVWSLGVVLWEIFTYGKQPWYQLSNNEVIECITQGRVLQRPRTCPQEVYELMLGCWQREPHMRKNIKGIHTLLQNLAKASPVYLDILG
UniProt Q16288, whole entry, looked up: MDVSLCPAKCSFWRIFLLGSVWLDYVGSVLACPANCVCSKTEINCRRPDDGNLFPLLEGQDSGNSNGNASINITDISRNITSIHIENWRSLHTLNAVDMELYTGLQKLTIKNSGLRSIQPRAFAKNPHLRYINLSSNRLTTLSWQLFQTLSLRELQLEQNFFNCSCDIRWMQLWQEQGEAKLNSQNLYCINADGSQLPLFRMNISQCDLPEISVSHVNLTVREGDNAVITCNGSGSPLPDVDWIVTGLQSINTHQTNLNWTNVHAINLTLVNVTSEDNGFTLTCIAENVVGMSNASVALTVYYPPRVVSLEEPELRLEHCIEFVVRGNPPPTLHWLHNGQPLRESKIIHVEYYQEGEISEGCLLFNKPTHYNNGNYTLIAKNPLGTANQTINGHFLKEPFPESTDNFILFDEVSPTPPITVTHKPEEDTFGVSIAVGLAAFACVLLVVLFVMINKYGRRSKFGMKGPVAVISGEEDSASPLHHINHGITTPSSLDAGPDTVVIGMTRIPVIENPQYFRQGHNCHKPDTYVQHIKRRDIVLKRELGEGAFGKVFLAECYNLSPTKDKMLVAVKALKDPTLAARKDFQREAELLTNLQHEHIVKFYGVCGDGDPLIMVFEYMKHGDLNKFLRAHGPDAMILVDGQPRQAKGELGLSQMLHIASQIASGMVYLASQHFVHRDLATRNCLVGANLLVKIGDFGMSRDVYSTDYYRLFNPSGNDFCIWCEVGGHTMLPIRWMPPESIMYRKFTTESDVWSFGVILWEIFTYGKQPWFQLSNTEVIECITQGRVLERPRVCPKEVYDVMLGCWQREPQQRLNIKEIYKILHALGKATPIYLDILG
UniProt O96013: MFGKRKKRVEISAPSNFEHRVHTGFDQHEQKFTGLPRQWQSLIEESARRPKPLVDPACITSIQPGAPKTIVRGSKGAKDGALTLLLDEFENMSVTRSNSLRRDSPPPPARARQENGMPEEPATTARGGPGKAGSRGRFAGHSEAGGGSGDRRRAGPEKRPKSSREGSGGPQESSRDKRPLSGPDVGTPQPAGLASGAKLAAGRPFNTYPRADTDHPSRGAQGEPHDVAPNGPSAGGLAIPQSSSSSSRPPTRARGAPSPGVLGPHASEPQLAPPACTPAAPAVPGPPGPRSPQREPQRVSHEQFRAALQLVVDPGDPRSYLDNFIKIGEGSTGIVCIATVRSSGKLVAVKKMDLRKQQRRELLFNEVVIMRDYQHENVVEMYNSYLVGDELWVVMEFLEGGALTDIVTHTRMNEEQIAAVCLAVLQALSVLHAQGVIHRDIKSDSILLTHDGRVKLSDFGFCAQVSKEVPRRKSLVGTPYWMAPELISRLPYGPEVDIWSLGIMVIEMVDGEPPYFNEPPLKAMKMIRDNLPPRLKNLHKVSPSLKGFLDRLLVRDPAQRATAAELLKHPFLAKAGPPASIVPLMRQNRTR
UniProt Q96KB5: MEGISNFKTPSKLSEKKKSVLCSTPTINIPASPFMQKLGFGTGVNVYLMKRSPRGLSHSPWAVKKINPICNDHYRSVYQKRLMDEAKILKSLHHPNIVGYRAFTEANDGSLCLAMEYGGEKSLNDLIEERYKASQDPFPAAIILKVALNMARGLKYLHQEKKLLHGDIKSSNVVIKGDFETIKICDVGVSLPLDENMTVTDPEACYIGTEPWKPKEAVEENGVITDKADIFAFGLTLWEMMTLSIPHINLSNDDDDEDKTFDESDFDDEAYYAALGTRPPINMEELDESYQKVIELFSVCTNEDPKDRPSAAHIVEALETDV
UniProt P09619, whole entry: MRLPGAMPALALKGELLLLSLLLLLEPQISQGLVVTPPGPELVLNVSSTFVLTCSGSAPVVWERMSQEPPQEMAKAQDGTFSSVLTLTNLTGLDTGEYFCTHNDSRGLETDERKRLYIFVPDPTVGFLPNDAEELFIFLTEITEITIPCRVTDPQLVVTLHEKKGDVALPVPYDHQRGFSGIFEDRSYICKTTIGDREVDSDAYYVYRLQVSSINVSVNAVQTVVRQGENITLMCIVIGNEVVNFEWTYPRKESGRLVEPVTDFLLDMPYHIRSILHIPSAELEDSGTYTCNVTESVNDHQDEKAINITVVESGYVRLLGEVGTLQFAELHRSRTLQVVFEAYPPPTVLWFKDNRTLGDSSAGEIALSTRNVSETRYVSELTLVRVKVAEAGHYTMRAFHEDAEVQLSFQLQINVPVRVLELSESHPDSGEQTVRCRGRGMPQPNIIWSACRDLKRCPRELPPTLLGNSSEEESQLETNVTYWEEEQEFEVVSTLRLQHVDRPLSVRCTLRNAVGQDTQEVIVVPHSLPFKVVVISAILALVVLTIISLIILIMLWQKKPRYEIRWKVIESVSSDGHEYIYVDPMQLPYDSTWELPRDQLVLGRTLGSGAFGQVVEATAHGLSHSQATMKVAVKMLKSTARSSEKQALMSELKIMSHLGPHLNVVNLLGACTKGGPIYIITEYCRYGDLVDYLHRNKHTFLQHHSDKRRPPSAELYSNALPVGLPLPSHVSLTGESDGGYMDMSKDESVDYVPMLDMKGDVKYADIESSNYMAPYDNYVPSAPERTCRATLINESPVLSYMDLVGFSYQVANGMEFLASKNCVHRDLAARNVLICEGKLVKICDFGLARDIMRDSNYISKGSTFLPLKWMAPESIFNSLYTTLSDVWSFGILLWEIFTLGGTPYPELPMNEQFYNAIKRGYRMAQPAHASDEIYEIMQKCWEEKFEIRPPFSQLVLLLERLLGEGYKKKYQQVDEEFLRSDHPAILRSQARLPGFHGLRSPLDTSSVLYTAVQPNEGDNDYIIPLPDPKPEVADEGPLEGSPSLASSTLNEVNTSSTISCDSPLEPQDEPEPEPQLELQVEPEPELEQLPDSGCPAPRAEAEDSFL
UniProt Q15118, whole entry, looked up: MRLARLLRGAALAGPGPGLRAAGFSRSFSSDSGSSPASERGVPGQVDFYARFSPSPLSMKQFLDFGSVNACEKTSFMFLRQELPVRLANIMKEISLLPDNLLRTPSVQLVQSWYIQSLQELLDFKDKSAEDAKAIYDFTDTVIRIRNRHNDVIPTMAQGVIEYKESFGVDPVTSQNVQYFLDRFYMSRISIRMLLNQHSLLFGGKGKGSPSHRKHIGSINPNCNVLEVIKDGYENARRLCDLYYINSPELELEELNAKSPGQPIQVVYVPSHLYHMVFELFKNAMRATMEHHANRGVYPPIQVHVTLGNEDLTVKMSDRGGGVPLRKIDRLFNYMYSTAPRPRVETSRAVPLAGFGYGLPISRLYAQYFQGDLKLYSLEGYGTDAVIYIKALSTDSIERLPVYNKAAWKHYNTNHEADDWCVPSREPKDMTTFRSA

What was measured:
Assay in all cases: kinase-Nluc reporter destabilization hit call (1 = scored as downregulated) (binary); higher = compound decreases kinase abundance
Conditions in all cases: K562; 2-18 h
MAPK1 = MAPK1 (UniProt P28482)
MAPK4 = MAPK4 (UniProt P31152)
MAPKAPK2 = MAPKAPK2 (UniProt P49137)
MKNK1 = MKNK1 (UniProt Q9BUB5)
NTRK2 = NTRK2 (UniProt Q16620)
NTRK3 = NTRK3 (UniProt Q16288)
PAK4 = PAK4 (UniProt O96013)
PBK = PBK (UniProt Q96KB5)
PDGFRB = PDGFRB (UniProt P09619)
PDK1 = PDK1 (UniProt Q15118)

Measured: kinase-Nluc reporter destabilization hit call

c1ccc(Cn2c(-c3ccc(OC[C@H](C4CCNCC4)n4c(-c5ccccc5)nc5ccccc54)cc3)nc3ccccc32)cc1 [Deltarasin] (2.5 µM)
inactive: MAPK1 = 0 | MAPK4 = 0 | MAPKAPK2 = 0 | MKNK1 = 0 | NTRK2 = 0 | NTRK3 = 0 | PAK4 = 0 | PBK 0 | PDGFRB 0 | PDK1 = 0

CC(C)n1c([C@H](C)Nc2ncnc(N)c2C#N)cc2cccc(-c3ccc(=O)n(C)c3)c2c1=O (10 µM)
inactive: MAPK1 = 0 | MAPK4 = 0 | MAPKAPK2 = 0 | MKNK1 = 0 | NTRK2 = 0 | NTRK3 = 0 | PAK4 = 0 | PBK 0 | PDGFRB 0 | PDK1 = 0

CC1CN(CC2CCN(Cc3ccccc3)CC2)C(=O)N(c2cccc(C(=N)N)c2)C1 (stereo not given) (10 µM)
inactive: MAPK1 = 0 | MAPK4 = 0 | MAPKAPK2 = 0 | MKNK1 = 0 | NTRK2 = 0 | NTRK3 = 0 | PAK4 = 0 | PBK 0 | PDGFRB 0 | PDK1 = 0

O=C(NCCN1CCOCC1)Nc1nc2ccc(Sc3nnc4ccc(-c5ccc(F)cc5)nn34)cc2s1 (10 µM)
inactive: MAPK1 = 0 | MAPK4 = 0 | MAPKAPK2 = 0 | MKNK1 = 0 | NTRK2 = 0 | NTRK3 = 0 | PAK4 = 0 | PBK 0 | PDGFRB 0 | PDK1 = 0

COc1cc2c(cc1OC)/C(=C/c1ccc(O)cc1)C(=O)N2 (10 µM)
inactive: MAPK1 = 0 | MAPK4 = 0 | MAPKAPK2 = 0 | MKNK1 = 0 | NTRK2 = 0 | NTRK3 = 0 | PAK4 = 0 | PBK 0 | PDGFRB 0 | PDK1 = 0

COc1cc2cc(Oc3ccc4ccc(=O)oc4c3)c(=O)oc2cc1O [Daphnoretin] (10 µM)
inactive: MAPK1 = 0 | MAPK4 = 0 | MAPKAPK2 = 0 | MKNK1 = 0 | NTRK2 = 0 | NTRK3 = 0 | PAK4 = 0 | PBK 0 | PDGFRB 0 | PDK1 = 0

Cc1ccc(NC(=O)Nc2cc(C(F)(F)F)ccc2F)cc1Nc1ccc2c(c1)NC(=O)/C2=C\c1ccc[nH]1 (2.5 µM)
inactive: MAPK1 = 0 | MAPK4 = 0 | MAPKAPK2 = 0 | MKNK1 = 0 | NTRK2 = 0 | NTRK3 = 0 | PAK4 = 0 | PBK 0 | PDGFRB 0 | PDK1 = 0

Nc1ncnc2c1nc(Br)n2[C@@H]1O[C@@H]2COP(=O)(O)O[C@H]2[C@H]1O [8-Bromo-cAMP sodium salt] (10 µM)
inactive: MAPK1 = 0 | MAPK4 = 0 | MAPKAPK2 = 0 | MKNK1 = 0 | NTRK2 = 0 | NTRK3 = 0 | PAK4 = 0 | PBK 0 | PDGFRB 0 | PDK1 = 0

COc1cc2nccc(Oc3ccc(NC(=O)c4cn(C(C)C)c(=O)n(-c5ccc(F)cc5)c4=O)cc3F)c2cc1OC (0.5 µM)
inactive: MAPK1 = 0 | MAPK4 = 0 | MAPKAPK2 = 0 | MKNK1 = 0 | NTRK2 = 0 | NTRK3 = 0 | PAK4 = 0 | PBK 0 | PDGFRB 0 | PDK1 = 0

Nc1nc(NCCNc2ncc(-n3ccnc3)c(-c3ccc(Cl)cc3Cl)n2)ccc1[N+](=O)[O-] (2.5 µM)
inactive: MAPK1 = 0 | MAPK4 = 0 | MAPKAPK2 = 0 | MKNK1 = 0 | NTRK2 = 0 | NTRK3 = 0 | PAK4 = 0 | PBK 0 | PDGFRB 0 | PDK1 = 0

COc1ccc(-c2cc(=O)c3c(OC)cc(OC)c(OC)c3o2)cc1 [6-Demethoxytangeretin] (10 µM)
inactive: MAPK1 = 0 | MAPK4 = 0 | MAPKAPK2 = 0 | MKNK1 = 0 | NTRK2 = 0 | NTRK3 = 0 | PAK4 = 0 | PBK 0 | PDGFRB 0 | PDK1 = 0

Cc1c(C(=O)Nc2ccc(Oc3ccnc4[nH]cc(-c5ccccc5)c34)c(F)c2)c(=O)n(-c2ccc(F)cc2)n1C (10 µM)
inactive: MAPK1 = 0 | MAPK4 = 0 | MAPKAPK2 = 0 | MKNK1 = 0 | NTRK2 = 0 | NTRK3 = 0 | PAK4 = 0 | PBK 0 | PDGFRB 0 | PDK1 = 0

CN(C)c1ccc(-c2nc3ncc(Cl)c(N4CCN(CC(=O)Nc5nccs5)CC4)c3[nH]2)cc1 (2 µM)
inactive: MAPK1 = 0 | MAPK4 = 0 | MAPKAPK2 = 0 | MKNK1 = 0 | NTRK2 = 0 | NTRK3 = 0 | PAK4 = 0 | PBK 0 | PDGFRB 0 | PDK1 = 0

C=C1CCC[C@]2(C)C=C3OC(=O)C(C)=C3C[C@@H]12 [Atractylenolide I] (10 µM)
inactive: MAPK1 = 0 | MAPK4 = 0 | MAPKAPK2 = 0 | MKNK1 = 0 | NTRK2 = 0 | NTRK3 = 0 | PAK4 = 0 | PBK 0 | PDGFRB 0 | PDK1 = 0

C=CC(=O)Nc1cc(Nc2nccc(-c3cn(C)c4ccccc34)n2)c(OC)cc1N(C)CCNC [AZ7550 Mesylate] (2.5 µM)
inactive: MAPK1 = 0 | MAPK4 = 0 | MAPKAPK2 = 0 | MKNK1 = 0 | NTRK2 = 0 | NTRK3 = 0 | PAK4 = 0 | PBK 0 | PDGFRB 0 | PDK1 = 0

Cc1cccc(/C=N/Nc2cc(N3CCOCC3)n3nc(-c4ccncc4)cc3n2)c1 (10 µM)
inactive: MAPK1 = 0 | MAPK4 = 0 | MAPKAPK2 = 0 | MKNK1 = 0 | NTRK2 = 0 | NTRK3 = 0 | PAK4 = 0 | PBK 0 | PDGFRB 0 | PDK1 = 0

CC(C)Oc1ccc(F)c(-c2cnc(N)c(C(=O)Nc3cnccc3N3CCC[C@@H](C(=O)O)C3)n2)c1 (2 µM)
inactive: MAPK1 = 0 | MAPK4 = 0 | MAPKAPK2 = 0 | MKNK1 = 0 | NTRK2 = 0 | NTRK3 = 0 | PAK4 = 0 | PBK 0 | PDGFRB 0 | PDK1 = 0

CC(C)[C@H](CO)Nc1nc(Nc2cccc(Cl)c2)c2ncn(C(C)C)c2n1 [Purvalanol A] (10 µM)
inactive: MAPK1 = 0 | MAPK4 = 0 | MAPKAPK2 = 0 | MKNK1 = 0 | NTRK2 = 0 | NTRK3 = 0 | PAK4 = 0 | PBK 0 | PDGFRB 0 | PDK1 = 0

CN1CCC(CNc2ccc3ncc(-c4cccc(OC(F)(F)F)c4)n3n2)CC1 (2.5 µM)
inactive: MAPK1 = 0 | MAPK4 = 0 | MAPKAPK2 = 0 | MKNK1 = 0 | NTRK2 = 0 | NTRK3 = 0 | PAK4 = 0 | PBK 0 | PDGFRB 0 | PDK1 = 0

Cc1cc(C(=O)NC(C)(C)C)cc(C#Cc2ccc3c4c(oc3c2)C(C)(C)c2cc(NS(C)(=O)=O)ccc2C4=O)n1 (10 µM)
inactive: MAPK1 = 0 | MAPK4 = 0 | MAPKAPK2 = 0 | MKNK1 = 0 | NTRK2 = 0 | NTRK3 = 0 | PAK4 = 0 | PBK 0 | PDGFRB 0 | PDK1 = 0

O=C(ON=C1c2ccccc2-c2nc3ccccc3nc21)c1ccco1 (2.5 µM)
inactive: MAPK1 = 0 | MAPK4 = 0 | MAPKAPK2 = 0 | MKNK1 = 0 | NTRK2 = 0 | NTRK3 = 0 | PAK4 = 0 | PBK 0 | PDGFRB 0 | PDK1 = 0

NC[C@@](O)(c1ccc(Cl)cc1)c1ccc(-c2cn[nH]c2)cc1 (10 µM)
inactive: MAPK1 = 0 | MAPK4 = 0 | MAPKAPK2 = 0 | MKNK1 = 0 | NTRK2 = 0 | NTRK3 = 0 | PAK4 = 0 | PBK 0 | PDGFRB 0 | PDK1 = 0

COCCOCCc1c(C)c2cc(OC)c(O)c(C=O)c2oc1=O (10 µM)
inactive: MAPK1 = 0 | MAPK4 = 0 | MAPKAPK2 = 0 | MKNK1 = 0 | NTRK2 = 0 | NTRK3 = 0 | PAK4 = 0 | PBK 0 | PDGFRB 0 | PDK1 = 0

Cc1c(C)c(NCC(=O)N(C)C2CCN(Cc3ccc(C(N)=O)cc3)CC2)c(C)c(C)c1N (10 µM)
inactive: MAPK1 = 0 | MAPK4 = 0 | MAPKAPK2 = 0 | MKNK1 = 0 | NTRK2 = 0 | NTRK3 = 0 | PAK4 = 0 | PBK 0 | PDGFRB 0 | PDK1 = 0

Nc1nccc(-c2c(-c3ccc(F)cc3)ncn2C2CCCCC2)n1 (10 µM)
inactive: MAPK1 = 0 | MAPK4 = 0 | MAPKAPK2 = 0 | MKNK1 = 0 | NTRK2 = 0 | NTRK3 = 0 | PAK4 = 0 | PBK 0 | PDGFRB 0 | PDK1 = 0

C[C@@H](Nc1ncnc2[nH]c(-c3ccc(O)cc3)cc12)c1ccccc1 (2.5 µM)
inactive: MAPK1 = 0 | MAPK4 = 0 | MAPKAPK2 = 0 | MKNK1 = 0 | NTRK2 = 0 | NTRK3 = 0 | PAK4 = 0 | PBK 0 | PDGFRB 0 | PDK1 = 0

Cn1c(=O)c2c(nc(S(C)(=O)=O)n2C)n(CC#Cc2cccc(O)c2)c1=O (2.5 µM)
inactive: MAPK1 = 0 | MAPK4 = 0 | MAPKAPK2 = 0 | MKNK1 = 0 | NTRK2 = 0 | NTRK3 = 0 | PAK4 = 0 | PBK 0 | PDGFRB 0 | PDK1 = 0

CNC(=O)c1ccc2c(c1)ncn2-c1ccc(CC(=O)OC(C)(C)C)cc1 (10 µM)
inactive: MAPK1 = 0 | MAPK4 = 0 | MAPKAPK2 = 0 | MKNK1 = 0 | NTRK2 = 0 | NTRK3 = 0 | PAK4 = 0 | PBK 0 | PDGFRB 0 | PDK1 = 0

Cc1cc(C(=O)NOCCO)c(Nc2ccc(I)cc2F)n(C)c1=O (10 µM)
inactive: MAPK1 = 0 | MAPK4 = 0 | MAPKAPK2 = 0 | MKNK1 = 0 | NTRK2 = 0 | NTRK3 = 0 | PAK4 = 0 | PBK 0 | PDGFRB 0 | PDK1 = 0

N#Cc1ccc2ncnc(NCCc3ccccc3)c2c1 [Senexin A] (10 µM)
inactive: MAPK1 = 0 | MAPK4 = 0 | MAPKAPK2 = 0 | MKNK1 = 0 | NTRK2 = 0 | NTRK3 = 0 | PAK4 = 0 | PBK 0 | PDGFRB 0 | PDK1 = 0

CCCCCC(=O)N[C@@H](Cc1ccc(O)cc1)C(=O)OC (10 µM)
inactive: MAPK1 = 0 | MAPK4 = 0 | MAPKAPK2 = 0 | MKNK1 = 0 | NTRK2 = 0 | NTRK3 = 0 | PAK4 = 0 | PBK 0 | PDGFRB 0 | PDK1 = 0

O=C(c1cccc(Cl)c1F)N1CCN(Cc2cccc(Nc3nccs3)n2)CC1 (2.5 µM)
inactive: MAPK1 = 0 | MAPK4 = 0 | MAPKAPK2 = 0 | MKNK1 = 0 | NTRK2 = 0 | NTRK3 = 0 | PAK4 = 0 | PBK 0 | PDGFRB 0 | PDK1 = 0

CC(C)=CCC/C(C)=C/CC/C(C)=C/C=C/C(C)=C/C(=O)O [Peretinoin] (10 µM)
inactive: MAPK1 = 0 | MAPK4 = 0 | MAPKAPK2 = 0 | MKNK1 = 0 | NTRK2 = 0 | NTRK3 = 0 | PAK4 = 0 | PBK 0 | PDGFRB 0 | PDK1 = 0
